Source: the supplement of paper PMC3334620
In all, about 33,000 sequences were measured (“E-score (-0.5 to 0.5)”: median about -0.016, highest 2% from about 0.3 on). The list shows a part of the results.

Target: T1, Yer184c (UniProt P39961)
T1 sequence: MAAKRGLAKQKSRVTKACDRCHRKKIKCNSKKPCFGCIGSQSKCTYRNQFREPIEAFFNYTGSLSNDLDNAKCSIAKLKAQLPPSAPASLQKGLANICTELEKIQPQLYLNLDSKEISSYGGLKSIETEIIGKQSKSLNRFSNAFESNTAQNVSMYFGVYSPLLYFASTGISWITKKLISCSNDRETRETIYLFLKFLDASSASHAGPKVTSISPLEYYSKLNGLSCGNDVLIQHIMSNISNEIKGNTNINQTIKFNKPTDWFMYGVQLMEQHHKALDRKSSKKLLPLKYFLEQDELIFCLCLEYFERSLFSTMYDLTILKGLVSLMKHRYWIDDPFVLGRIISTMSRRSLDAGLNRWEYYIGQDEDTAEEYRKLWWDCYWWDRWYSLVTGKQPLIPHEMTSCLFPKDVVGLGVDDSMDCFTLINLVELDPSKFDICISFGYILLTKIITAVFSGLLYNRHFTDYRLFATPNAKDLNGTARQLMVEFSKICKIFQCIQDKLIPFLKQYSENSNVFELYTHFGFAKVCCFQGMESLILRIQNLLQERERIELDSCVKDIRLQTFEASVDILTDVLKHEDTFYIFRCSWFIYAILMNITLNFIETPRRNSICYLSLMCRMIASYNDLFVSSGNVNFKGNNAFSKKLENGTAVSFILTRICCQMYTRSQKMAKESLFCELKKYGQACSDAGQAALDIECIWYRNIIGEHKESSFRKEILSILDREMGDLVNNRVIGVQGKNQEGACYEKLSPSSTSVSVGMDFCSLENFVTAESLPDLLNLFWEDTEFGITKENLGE
Experiment: PBM E-score (8-mer binding enrichment) (E-score (-0.5 to 0.5)); higher = stronger / more preferred TF binding
Conditions: protein concentration: 100 nM; construct: GST-full length
Method in brief: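 Detection of bound protein used fluorescent anti-GST, with scans normalised by masliner. The proteins were GST-tagged yeast transcription factors applied at about 100-200 nM to universal all-10-mer Agilent arrays made double-stranded by primer extension. Each ungapped eight-base word, pooled with its reverse complement, was scored with an E-score from the Universal PBM Analysis Suite.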

Sequence | PBM E-score
ATGCACCC | -0.147
CACTCGAC | -0.0695
CCAAAACC | 0.0957
GTCAACAA | -0.0763
AGCCAGCC | -0.152
AAATAGTA | 0.18
ACTGTCTG | -0.0988
CCGTACTC | -0.115
GGTCACCA | -0.188
CTATCGAG | -0.0801
AGTTATCG | 0.227
CGTGGGGC | -0.123
AAGCTAAT | 0.162
ACCAACAT | 0.133
CTGTGTAC | 0.179
GCCGCCTA | -0.265
CAGGTGAA | 0.061
CAGATCCA | -0.0622
CCAGCGAA | -0.041
ATGGGTAG | -0.166
CATAAGAC | -0.112
TGACCGAA | 0.228

Given as comma-separated lines: part of the list above
Sequence,PBM E-score
ATGCACCC,-0.147
CACTCGAC,-0.0695
CCAAAACC,0.0957
GTCAACAA,-0.0763
AGCCAGCC,-0.152
AAATAGTA,0.18
ACTGTCTG,-0.0988
CCGTACTC,-0.115
GGTCACCA,-0.188
CTATCGAG,-0.0801
AGTTATCG,0.227
CGTGGGGC,-0.123
AAGCTAAT,0.162
ACCAACAT,0.133
CTGTGTAC,0.179
GCCGCCTA,-0.265
CAGGTGAA,0.061
CAGATCCA,-0.0622
CCAGCGAA,-0.041
ATGGGTAG,-0.166
CATAAGAC,-0.112

(list continues)

Sequence | PBM E-score
ACTGTAAA | 0.22
AAACCAAA | 0.258
GCCGACAC | 0.144
GAGGATTA | 0.0226
GAACTTGC | 0.0842
CTTCGATA | 0.139
ACCCGGAG | 0.348
GCAGCACA | 0.0134
GGCAGTAA | -0.0215
AGTGTGCC | -0.00263
CGGGGGTA | -0.0376
CCCGAAAA | 0.263
AATGCTGT | -0.0607
AGGCTAAT | -0.0256
CACGCTTA | -0.0305
CATGTACC | -0.257
GCCTGCCA | -0.0615
ACTGACCG | -0.0172
CATCTTGA | 0.0615
ATCTTGAG | -0.0655
GGGACGAA | 0.0852
CAGGGCGA | -0.0862

Sequence | PBM E-score
GGAGATAC | 0.124
CGTGACAA | 0.0462
CTTCCCGA | 0.148
AACGCATT | 0.157
AGTCATCA | -0.247
ATCGACTC | -0.2
CGTCGCAG | -0.00917
AGCCCAAC | -0.27
GGACATTA | 0.0863
GGATGGTA | 0.108
ACGTAACC | -0.0261
CAATGATG | -0.025
CCCGGTGA | 0.11
TGATAAAA | 0.178
GATTTCAA | 0.169
ATAGGACG | -0.238
AGCCACCT | -0.348
GGCTACCA | -0.0791
ATGATTAG | 0.101
CGTTACGA | 0.156
GGTTCTGA | 0.0515
GCATGCGA | 0.239

Sequence | PBM E-score
GCCGTGAC | 0.181
CCCCTCCC | -0.192
TAAAAGTA | 0.161
AATCAAGA | -0.00396
ATGGCCCA | 0.0557
TTCCAGAA | 0.185
CTTACCCA | -0.149
CTGCAATA | 0.111
AGGATCAG | -0.161
GAGATACA | 0.243
ACTTCAGC | -0.0952
GGATTACC | 0.0944
TGTGACAA | 0.0343
GATAGGAA | 0.0411
AAGCGTGG | -0.138
AGAACGCT | -0.202
CCAATACG | -0.127
GACACGGA | 0.277
AAGAAATT | 0.346
GACCTACA | -0.115
